In US20250115642A1 (priority 2022, published 2025):
Plain letter strings leave the end groups untold.

Assay: general procedure: Fmoc solid-phase peptide synthesis; Rink Amide MBHA resin (0.075 mmol/g, 100 to 200 mesh, 1% DVB crosslinking); HBTU/DIPEA
Settings: whole synthesis, liquid chromatography, scale of the general procedure 50 mg resin

With “GKCSTRGRKSSRRKK (PEPTIDE HAVING ANTIBACTERIAL, …ON OR TISSUE …ON)” the “final purity (method not given)” value was 98.2%.
